Measured values as given in publication PMC7946643.
Where two headings read alike, the source gives them in different places. Results are given in words; binding and its absence hold for the method and conditions named. In cells and extracts the contact can be indirect. A yes stands for co-enrichment or nearness to the bait. Other partners may have been found. Values belong to the molecule of their own block, whether it stands above or below them.

Amino acid sequences for entries named in this document (tags omitted). A change or cut given only in a name is not applied to a line headed by its entry.
UniProt Q96RD7: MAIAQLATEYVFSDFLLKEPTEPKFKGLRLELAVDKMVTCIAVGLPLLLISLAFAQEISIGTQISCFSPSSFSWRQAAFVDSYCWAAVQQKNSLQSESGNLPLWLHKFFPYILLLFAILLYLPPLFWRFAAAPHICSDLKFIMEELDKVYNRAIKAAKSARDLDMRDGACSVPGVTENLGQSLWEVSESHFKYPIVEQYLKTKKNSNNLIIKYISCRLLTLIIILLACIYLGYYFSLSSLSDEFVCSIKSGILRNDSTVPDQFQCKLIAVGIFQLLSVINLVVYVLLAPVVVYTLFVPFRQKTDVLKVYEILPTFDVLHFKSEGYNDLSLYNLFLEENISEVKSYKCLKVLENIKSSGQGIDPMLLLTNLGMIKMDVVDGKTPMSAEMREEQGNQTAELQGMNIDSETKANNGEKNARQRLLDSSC
UniProt P07355: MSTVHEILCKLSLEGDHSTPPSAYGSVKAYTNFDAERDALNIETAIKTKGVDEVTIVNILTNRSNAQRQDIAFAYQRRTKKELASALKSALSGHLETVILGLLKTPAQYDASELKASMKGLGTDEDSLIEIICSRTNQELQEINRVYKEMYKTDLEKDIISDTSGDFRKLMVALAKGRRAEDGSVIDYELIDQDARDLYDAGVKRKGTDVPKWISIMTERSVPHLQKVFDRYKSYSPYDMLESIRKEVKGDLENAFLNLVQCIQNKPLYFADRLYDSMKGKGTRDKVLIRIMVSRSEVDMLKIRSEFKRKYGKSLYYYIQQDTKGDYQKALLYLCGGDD
UniProt P35579: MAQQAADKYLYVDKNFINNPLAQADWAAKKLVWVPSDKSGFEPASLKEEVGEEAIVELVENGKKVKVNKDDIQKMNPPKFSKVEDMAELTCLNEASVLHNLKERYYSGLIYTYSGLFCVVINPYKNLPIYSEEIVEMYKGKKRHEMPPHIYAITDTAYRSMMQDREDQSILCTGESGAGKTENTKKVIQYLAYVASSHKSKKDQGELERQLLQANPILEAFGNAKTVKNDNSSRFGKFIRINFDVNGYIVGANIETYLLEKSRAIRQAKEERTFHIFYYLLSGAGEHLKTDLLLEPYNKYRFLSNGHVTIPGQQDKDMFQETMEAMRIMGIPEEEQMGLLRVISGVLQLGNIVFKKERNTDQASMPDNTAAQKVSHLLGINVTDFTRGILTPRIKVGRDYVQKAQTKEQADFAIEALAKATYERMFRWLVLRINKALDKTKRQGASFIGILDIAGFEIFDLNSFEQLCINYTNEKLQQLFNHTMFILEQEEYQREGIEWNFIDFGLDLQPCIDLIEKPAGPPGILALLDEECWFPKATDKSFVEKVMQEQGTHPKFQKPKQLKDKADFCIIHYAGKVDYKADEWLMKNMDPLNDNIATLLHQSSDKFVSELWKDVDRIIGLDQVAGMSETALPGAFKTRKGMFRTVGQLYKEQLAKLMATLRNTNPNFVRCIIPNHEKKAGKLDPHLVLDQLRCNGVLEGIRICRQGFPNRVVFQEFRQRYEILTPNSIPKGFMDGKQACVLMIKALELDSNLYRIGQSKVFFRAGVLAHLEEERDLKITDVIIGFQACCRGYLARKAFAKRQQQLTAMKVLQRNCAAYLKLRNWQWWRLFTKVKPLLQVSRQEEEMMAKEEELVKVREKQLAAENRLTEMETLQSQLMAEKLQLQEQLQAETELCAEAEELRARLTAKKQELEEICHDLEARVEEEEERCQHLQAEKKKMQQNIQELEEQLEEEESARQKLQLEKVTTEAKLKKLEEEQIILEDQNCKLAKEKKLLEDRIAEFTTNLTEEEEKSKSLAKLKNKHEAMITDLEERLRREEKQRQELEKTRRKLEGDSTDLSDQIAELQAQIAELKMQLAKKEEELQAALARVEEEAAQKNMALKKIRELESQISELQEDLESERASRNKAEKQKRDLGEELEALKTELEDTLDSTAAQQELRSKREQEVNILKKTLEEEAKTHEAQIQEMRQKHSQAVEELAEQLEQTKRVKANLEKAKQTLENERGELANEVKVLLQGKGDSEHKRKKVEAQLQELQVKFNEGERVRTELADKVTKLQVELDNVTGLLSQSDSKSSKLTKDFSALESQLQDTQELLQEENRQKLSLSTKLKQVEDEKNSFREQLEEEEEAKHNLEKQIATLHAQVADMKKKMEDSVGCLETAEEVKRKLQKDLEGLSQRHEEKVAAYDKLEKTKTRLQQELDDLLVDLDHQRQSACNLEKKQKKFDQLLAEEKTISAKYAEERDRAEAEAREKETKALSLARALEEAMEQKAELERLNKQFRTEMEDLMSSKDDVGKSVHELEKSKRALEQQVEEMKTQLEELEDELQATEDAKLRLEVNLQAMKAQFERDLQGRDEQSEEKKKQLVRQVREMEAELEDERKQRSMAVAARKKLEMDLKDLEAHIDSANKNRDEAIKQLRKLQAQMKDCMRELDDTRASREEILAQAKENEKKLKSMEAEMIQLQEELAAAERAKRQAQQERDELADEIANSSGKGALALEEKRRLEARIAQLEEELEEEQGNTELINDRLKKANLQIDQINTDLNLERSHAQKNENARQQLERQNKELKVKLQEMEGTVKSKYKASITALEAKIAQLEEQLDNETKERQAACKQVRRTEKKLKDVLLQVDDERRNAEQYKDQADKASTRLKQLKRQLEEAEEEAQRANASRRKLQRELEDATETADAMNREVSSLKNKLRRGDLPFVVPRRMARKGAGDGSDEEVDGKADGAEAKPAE
UniProt P46939: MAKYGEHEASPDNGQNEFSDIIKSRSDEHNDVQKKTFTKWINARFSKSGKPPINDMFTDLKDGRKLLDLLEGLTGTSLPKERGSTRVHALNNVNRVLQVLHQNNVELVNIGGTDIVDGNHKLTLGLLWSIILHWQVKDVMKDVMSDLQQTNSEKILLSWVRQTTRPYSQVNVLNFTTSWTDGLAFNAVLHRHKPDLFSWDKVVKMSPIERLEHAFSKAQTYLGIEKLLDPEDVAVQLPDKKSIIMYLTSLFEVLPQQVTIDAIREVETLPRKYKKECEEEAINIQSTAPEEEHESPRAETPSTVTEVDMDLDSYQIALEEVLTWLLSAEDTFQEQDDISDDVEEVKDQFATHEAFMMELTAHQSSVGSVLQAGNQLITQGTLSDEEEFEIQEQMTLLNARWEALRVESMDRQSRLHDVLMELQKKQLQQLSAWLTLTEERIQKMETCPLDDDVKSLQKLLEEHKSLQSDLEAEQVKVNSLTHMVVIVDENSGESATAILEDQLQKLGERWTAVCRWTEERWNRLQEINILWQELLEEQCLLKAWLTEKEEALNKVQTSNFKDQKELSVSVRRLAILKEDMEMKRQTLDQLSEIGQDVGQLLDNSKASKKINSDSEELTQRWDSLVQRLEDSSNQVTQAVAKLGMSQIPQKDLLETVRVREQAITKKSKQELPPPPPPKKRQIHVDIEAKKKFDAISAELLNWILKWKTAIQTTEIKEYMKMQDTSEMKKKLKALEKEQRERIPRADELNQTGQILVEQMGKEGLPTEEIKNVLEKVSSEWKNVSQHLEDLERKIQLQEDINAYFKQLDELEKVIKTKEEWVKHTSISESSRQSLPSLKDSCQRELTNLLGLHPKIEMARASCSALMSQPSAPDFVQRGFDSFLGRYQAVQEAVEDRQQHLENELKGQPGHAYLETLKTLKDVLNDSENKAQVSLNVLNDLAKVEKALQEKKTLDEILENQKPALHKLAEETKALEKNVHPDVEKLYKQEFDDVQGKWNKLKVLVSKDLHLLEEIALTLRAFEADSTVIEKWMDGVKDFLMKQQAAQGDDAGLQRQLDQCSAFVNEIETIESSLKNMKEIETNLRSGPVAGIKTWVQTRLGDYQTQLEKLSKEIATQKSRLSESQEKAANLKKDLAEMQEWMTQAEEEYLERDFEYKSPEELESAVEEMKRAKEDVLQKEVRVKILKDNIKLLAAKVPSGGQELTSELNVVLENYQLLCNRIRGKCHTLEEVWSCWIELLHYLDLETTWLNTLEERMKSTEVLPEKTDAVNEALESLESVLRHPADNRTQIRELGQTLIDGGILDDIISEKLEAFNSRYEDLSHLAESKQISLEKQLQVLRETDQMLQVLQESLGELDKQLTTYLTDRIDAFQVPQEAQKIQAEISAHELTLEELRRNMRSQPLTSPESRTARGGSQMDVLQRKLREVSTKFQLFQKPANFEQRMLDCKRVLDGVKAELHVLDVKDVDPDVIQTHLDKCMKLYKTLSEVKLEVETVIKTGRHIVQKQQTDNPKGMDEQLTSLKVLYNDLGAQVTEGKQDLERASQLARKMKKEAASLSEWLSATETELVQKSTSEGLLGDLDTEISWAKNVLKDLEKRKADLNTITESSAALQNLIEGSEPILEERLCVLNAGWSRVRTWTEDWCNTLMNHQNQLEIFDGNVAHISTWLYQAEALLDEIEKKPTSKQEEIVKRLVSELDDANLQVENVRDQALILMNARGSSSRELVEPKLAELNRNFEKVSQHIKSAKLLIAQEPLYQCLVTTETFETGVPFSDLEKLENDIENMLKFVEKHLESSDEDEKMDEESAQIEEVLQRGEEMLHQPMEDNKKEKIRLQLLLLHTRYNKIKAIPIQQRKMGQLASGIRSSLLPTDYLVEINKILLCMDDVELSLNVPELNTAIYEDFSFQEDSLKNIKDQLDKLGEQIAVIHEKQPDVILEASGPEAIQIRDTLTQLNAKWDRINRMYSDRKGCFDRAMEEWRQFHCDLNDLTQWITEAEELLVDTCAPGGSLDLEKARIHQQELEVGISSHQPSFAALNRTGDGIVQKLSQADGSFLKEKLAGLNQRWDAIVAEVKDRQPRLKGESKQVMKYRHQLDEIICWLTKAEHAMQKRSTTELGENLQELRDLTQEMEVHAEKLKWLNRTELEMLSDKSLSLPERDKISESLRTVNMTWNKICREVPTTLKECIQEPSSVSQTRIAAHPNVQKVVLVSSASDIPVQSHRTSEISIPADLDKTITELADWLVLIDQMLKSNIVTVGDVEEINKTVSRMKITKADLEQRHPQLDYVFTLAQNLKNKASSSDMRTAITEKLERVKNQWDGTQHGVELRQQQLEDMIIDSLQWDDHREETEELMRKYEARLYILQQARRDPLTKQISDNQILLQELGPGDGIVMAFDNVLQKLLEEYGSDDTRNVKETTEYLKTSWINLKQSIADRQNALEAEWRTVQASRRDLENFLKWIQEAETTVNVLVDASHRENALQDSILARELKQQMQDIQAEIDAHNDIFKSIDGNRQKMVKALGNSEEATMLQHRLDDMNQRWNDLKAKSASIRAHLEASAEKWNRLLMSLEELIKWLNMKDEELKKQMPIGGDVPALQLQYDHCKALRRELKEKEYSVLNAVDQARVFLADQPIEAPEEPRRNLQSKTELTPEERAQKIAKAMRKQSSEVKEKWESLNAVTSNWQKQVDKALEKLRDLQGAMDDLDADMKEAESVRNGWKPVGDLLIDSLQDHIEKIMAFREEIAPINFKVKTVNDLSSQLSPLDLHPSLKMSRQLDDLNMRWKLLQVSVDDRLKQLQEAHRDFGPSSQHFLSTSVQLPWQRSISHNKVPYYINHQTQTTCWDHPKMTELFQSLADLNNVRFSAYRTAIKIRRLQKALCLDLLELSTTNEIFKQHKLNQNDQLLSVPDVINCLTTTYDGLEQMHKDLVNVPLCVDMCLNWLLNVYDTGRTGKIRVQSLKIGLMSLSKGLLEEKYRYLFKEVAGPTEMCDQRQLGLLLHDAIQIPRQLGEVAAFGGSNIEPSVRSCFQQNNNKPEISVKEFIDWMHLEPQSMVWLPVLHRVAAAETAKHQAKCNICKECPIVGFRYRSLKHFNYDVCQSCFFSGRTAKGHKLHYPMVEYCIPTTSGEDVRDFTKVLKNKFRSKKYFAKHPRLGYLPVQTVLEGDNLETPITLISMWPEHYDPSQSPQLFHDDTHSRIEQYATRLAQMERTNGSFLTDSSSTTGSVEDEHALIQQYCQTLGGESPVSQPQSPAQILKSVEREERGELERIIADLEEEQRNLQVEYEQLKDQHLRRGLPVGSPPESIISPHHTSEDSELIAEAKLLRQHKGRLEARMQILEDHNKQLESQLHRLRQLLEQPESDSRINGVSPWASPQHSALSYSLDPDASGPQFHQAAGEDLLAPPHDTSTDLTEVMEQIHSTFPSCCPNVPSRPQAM

What was measured:
[1] = biological target: Myc-PANX1 (UniProt Q96RD7); assay: affinity purification with mass spectrometry; Myc-PANX1-enriched sucrose-gradient fractions of stable Rh18 and Rh30 cells pooled, buffer exchanged for IP lysis buffer (150 mM NaCl, 10 mM Tris-HCl pH 7.4, 1 mM EDTA, 0.5% NP-40, 1% Triton X-100), co-IP with anti-Myc antibodies, HPLC-ESI-MS/MS; GFP control fractions as background
[2] = biological target: PANX1-BirA*(R118G)-HA (UniProt Q96RD7); assay: proximity labelling; BioID: BirA*-PANX1 induced with cumate in stable Rh18 and Rh30 cells, biotin for 24 h, biotinylated proteins captured on streptavidin beads, digested on-bead, HPLC-ESI-MS/MS; Myc-PANX1 as background control
[3] = biological target: PANX1-BirA*(R118G)-HA (UniProt Q96RD7); assay: as above; remark: listed apart in the source

binding [2]: binds
Molecule: Annexin A2 (from UniProt P07355 1-339)

binding [1]: binds
binding [2]: binds
Molecule: MYH9 (from UniProt P35579 1-1960)

binding [3]: binds
B1: septin-9 (protein, UniProt Q9UHD8 1-586)
chain: MKKSYSGGTRTSSGRLRRLGDSSGPALKRSFEVEEVETPNSTPPRRVQTPLLRATVASSTQKFQDLGVKNSEPSARHVDSLSQRSPKASLRRVELSGPKAAEPVSRRTELSIDISSKQVENAGAIGPSRFGLKRAEVLGHKTPEPAPRRTEITIVKPQESAHRRMEPPASKVPEVPTAPATDAAPKRVEIQMPKPAEAPTAPSPAQTLENSEPAPVSQLQSRLEPKPQPPVAEATPRSQEATEAAPSCVGDMADTPRDAGLKQAPASRNEKAPVDFGYVGIDSILEQMRRKAMKQGFEFNIMVVGQSGLGKSTLINTLFKSKISRKSVQPTSEERIPKTIEIKSITHDIEEKGVRMKLTVIDTPGFGDHINNENCWQPIMKFINDQYEKYLQEEVNINRKKRIPDTRVHCCLYFIPATGHSLRPLDIEFMKRLSKVVNIVPVIAKADTLTLEERVHFKQRITADLLSNGIDVYPQKEFDEDSEDRLVNEKFREMIPFAVVGSDHEYQVNGKRILGRKTKWGTIEVENTTHCEFAYLRDLLIRTHMQNIKDITSSIHFEAYRVKRLNEGSSAMANGMEEKEPEAPEM

The next lines start with the molecule.

Molecule: AHNAK (from UniProt Q09666 1-5890)
binding [1]: binds
binding [2]: binds

Molecule: UTRN (from UniProt P46939 1-3433)
binding [1]: binds
binding [2]: binds
